Measurements from patent US5196410A, “Transdermal flux enhancing compositions” (priority 1991, dated 1993).
Read-outs that look alike come from different tables or passages of the source.

Time Lag (20% v/v ethanol, 0.5% v/v Azone, 6.8 mg/ml): 3.3 h
Time Lag (20% v/v ethanol, no Azone, 6.7 mg/ml): 0.5 h
transport rate, times greater than 55% ethanol vehicle (30% ethanol, 0.5% v/v Azone vs 55% ethanol): approximately 3.5 times
Time Lag (30% v/v ethanol, 0.5% v/v Azone, 8.1 mg/ml): 1.7 h
Time Lag (30% v/v ethanol, no Azone, 8.2 mg/ml): 0.4 h
Time Lag (55% v/v ethanol, 0.5% v/v Azone, 17.5 mg/ml): 3.6 h
Time Lag (55% v/v ethanol, no Azone, 17.9 mg/ml): 4.6 h
SMILES: Cc1cnc(C(=O)NCCc2ccc(S(=O)(=O)NC(=O)NC3CCCCC3)cc2)cn1 [Glipizide]
